Data taken from PMC6886185.

The chains behind the UniProt entries cited, without tags or fusion partners.
UniProt Q14240: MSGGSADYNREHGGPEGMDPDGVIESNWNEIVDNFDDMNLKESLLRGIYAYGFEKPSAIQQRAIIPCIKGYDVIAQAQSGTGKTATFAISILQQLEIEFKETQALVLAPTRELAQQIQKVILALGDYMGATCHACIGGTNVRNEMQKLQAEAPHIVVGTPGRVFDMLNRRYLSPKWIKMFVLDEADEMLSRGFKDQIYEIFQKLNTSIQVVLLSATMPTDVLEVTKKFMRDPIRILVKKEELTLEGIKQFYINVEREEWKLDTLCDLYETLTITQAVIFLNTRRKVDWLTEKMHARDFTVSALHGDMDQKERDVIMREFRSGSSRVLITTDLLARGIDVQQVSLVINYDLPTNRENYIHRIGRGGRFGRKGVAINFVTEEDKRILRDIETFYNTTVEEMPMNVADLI
UniProt A5YKK6: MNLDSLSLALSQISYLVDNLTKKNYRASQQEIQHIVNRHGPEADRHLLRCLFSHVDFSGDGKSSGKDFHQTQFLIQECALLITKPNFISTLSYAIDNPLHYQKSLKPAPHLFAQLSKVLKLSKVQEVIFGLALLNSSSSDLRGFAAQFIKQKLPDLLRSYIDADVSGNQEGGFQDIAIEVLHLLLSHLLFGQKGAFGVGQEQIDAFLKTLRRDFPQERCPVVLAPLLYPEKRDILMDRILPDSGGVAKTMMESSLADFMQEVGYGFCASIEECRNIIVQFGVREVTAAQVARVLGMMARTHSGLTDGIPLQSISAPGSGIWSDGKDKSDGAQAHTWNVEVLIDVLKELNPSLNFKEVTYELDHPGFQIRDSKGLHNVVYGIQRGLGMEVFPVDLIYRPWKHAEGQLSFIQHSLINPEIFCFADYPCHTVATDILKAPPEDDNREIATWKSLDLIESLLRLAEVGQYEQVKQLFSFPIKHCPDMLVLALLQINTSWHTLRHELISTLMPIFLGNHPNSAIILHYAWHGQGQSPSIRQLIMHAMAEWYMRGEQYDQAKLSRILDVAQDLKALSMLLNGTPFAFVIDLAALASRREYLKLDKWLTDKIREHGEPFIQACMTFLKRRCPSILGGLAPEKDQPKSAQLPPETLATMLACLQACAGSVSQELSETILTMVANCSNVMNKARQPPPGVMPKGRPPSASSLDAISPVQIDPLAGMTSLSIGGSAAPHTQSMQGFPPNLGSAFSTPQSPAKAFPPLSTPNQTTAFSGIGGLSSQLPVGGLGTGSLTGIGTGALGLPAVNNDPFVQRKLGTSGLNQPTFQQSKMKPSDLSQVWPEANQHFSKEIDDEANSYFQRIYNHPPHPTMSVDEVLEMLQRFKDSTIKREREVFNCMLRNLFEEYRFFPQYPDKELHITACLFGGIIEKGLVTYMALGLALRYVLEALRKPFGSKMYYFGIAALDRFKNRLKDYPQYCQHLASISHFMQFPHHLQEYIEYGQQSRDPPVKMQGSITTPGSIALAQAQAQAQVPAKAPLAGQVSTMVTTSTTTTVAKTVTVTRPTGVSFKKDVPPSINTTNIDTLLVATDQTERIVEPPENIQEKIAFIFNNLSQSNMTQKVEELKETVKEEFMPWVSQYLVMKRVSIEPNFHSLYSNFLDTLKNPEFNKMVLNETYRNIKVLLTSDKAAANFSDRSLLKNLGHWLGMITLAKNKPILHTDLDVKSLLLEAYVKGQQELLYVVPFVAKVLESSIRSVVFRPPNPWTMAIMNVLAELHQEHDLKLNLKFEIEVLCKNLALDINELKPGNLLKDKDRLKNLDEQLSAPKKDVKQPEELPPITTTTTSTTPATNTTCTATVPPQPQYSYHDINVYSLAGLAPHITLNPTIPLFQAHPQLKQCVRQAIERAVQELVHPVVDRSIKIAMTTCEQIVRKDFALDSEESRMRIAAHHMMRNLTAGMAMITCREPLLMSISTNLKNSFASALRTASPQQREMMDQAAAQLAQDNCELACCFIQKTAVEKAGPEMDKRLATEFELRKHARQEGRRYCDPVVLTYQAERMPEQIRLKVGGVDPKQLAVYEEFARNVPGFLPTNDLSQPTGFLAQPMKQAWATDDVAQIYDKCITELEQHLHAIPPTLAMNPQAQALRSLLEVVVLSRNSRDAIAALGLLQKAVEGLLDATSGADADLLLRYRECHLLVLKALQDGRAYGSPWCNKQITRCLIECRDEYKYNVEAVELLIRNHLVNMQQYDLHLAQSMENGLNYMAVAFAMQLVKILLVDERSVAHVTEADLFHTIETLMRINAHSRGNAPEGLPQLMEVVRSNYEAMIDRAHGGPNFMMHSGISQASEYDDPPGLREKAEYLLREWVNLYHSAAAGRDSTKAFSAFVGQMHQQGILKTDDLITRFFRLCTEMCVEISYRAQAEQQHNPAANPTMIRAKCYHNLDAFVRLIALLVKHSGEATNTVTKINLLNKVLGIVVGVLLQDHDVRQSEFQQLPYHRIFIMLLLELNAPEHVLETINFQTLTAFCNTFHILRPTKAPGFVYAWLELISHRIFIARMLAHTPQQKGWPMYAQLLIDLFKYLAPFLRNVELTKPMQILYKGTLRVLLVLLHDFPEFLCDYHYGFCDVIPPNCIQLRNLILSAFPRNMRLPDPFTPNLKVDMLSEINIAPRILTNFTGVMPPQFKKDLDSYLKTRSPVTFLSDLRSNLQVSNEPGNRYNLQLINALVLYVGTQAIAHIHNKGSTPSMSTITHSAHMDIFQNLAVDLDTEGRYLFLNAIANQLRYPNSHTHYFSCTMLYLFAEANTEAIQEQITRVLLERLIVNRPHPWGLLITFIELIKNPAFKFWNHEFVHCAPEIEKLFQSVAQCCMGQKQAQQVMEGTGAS
UniProt Q9UIV1: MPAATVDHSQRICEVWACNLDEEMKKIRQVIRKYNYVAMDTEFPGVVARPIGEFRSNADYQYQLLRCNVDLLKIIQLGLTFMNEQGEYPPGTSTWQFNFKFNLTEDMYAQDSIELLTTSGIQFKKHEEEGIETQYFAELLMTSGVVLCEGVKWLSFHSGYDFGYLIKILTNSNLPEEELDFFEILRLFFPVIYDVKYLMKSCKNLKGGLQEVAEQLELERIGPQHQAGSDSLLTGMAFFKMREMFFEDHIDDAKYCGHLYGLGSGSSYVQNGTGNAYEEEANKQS
UniProt Q9C0C2: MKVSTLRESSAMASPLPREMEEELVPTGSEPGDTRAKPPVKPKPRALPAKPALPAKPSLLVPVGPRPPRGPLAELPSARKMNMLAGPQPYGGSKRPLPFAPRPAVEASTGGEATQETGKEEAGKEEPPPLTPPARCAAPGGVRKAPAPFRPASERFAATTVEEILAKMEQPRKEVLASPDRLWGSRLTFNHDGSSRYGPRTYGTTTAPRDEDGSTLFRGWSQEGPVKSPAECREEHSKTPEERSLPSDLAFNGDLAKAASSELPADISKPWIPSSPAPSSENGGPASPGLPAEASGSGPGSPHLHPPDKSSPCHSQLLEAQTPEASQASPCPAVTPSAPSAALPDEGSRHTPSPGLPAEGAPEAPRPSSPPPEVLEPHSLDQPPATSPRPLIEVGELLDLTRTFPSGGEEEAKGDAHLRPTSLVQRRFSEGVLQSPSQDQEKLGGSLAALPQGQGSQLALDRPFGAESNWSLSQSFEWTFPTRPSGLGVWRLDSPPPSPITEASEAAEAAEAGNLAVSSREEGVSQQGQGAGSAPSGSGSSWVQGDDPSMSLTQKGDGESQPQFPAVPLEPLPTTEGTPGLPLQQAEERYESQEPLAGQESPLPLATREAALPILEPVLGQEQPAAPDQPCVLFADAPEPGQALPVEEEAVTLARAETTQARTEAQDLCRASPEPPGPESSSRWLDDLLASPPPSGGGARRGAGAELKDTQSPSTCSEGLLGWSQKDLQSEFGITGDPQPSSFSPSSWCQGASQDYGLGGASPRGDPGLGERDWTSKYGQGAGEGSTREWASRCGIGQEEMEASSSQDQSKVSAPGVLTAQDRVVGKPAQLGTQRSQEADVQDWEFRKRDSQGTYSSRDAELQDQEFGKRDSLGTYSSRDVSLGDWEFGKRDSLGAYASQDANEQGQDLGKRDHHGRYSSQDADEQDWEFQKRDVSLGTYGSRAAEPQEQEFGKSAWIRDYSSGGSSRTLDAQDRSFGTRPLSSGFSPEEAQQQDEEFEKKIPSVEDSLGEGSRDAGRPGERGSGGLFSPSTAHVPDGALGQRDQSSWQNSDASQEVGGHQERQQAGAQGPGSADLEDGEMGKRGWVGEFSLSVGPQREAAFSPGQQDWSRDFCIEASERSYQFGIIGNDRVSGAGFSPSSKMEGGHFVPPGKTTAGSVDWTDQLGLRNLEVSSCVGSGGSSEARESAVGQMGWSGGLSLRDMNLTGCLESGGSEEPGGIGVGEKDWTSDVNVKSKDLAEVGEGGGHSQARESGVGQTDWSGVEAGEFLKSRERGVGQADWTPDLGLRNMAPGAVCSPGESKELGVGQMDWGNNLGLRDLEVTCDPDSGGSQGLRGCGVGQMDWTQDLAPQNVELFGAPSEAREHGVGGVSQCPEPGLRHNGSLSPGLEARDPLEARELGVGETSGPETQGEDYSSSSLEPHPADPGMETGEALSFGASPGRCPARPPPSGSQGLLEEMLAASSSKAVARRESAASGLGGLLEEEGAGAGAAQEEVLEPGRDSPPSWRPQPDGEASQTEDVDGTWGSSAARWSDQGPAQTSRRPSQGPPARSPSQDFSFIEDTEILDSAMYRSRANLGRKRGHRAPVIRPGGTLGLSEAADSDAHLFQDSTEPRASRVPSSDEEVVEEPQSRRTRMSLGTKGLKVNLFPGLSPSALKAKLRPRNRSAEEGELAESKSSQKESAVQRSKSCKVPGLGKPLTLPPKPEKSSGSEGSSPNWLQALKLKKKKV
UniProt Q13049: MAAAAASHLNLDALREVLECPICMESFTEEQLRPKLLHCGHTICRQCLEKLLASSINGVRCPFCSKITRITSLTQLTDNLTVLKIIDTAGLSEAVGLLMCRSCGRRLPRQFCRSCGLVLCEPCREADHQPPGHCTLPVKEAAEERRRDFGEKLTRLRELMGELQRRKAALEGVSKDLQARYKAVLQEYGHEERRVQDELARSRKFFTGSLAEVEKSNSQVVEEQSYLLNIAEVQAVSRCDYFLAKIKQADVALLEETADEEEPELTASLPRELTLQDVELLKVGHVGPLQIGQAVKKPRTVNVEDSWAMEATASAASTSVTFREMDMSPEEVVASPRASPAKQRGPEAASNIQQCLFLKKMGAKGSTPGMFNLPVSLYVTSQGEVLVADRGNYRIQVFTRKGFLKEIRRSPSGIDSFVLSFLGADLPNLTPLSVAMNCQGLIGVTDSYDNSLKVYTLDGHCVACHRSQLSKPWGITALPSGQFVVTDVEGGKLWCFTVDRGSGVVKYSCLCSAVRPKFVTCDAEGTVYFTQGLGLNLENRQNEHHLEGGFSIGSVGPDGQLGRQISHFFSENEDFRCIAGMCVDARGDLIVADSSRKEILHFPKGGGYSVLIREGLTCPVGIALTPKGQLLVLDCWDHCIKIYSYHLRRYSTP

Target: eIF4A2 (endogenous) (human (endogenous in HeLa)) (UniProt Q14240)
Test: affinity purification with mass spectrometry; IP of endogenous eIF4A2 (and eIF4A1, rabbit IgG) from precleared HeLa cytoplasmic lysate; 20 mM Tris-HCl pH 7.5, 200 mM NaCl, 2.5 mM MgCl2, 0.5% Triton X-100, 4C; protein G Dynabeads; LC-MS/MS, emPAI

Row | binding | Substance
1 | binds | CNOT1 (from UniProt A5YKK6 1-2376)
2 | binds | CNOT7 (from UniProt Q9UIV1 1-285)
3 | binds | TNKS1BP1 (from UniProt Q9C0C2 1-1729)
4 | binds | TRIM32 (from UniProt Q13049 1-653)

These are yes or no findings as the source states them, for the method shown. In cells and extracts the contact can be indirect. A yes stands for co-enrichment or nearness to the bait. Other partners may have been found.
